# From the supplement of paper PMC8728848
# The other results are listed elsewhere or left out.
# Key:
# Assay in all cases: glycan array binding signal (z-score within array); higher = stronger binding
# Settings in all cases: glycan notation: IUPAC condensed, linker removed
# [1] = target: Neu5Ac(a2-3)Gal(b1-4)GlcNAc(b1-2)[Neu5Ac(a2-3)Gal(b1-4)GlcNAc(b1-4)]Man(a1-3)[GlcNAc(b1-4)][Neu5Ac(a2-3)Gal(b1-4)GlcNAc(b1-2)[Neu5Ac(a2-3)Gal(b1-4)GlcNAc(b1-6)]Man(a1-6)]Man(b1-4)GlcNAc(b1-4)GlcNAc
# Procedure, shortened: (§1)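 The Consortium for Functional Glycomics database supplied 3228 glycan arrays, of which those lacking an available protein sequence were dropped. The binding signal, a within-array Z-score, was averaged across arrays of the same protein sequence and across linkers. Negative scores can be read as non-binding.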
# [2] = target: Neu5Ac(a2-3)Gal(b1-4)GlcNAc(b1-2)[Neu5Ac(a2-3)Gal(b1-4)GlcNAc(b1-4)]Man(a1-3)[GlcNAc(b1-4)][Neu5Ac(a2-3)Gal(b1-4)GlcNAc(b1-4)Man(a1-6)]Man(b1-4)GlcNAc(b1-4)GlcNAc
# Procedure, shortened: as §1
# [3] = target: Neu5Ac(a2-3)Gal(b1-4)GlcNAc(b1-2)[Neu5Ac(a2-3)Gal(b1-4)GlcNAc(b1-6)]Man(a1-6)[Neu5Ac(a2-3)Gal(b1-4)GlcNAc(b1-2)Man(a1-3)]Man(b1-4)GlcNAc(b1-4)GlcNAc
# Procedure, shortened: as §1
# [4] = target: Neu5Ac(a2-3)Gal(b1-4)GlcNAc(b1-2)[Neu5Ac(a2-3)Gal(b1-4)GlcNAc(b1-6)]Man(a1-6)[Neu5Ac(a2-3)Gal(b1-4)GlcNAc(b1-2)Man(a1-3)][GlcNAc(b1-4)]Man(b1-4)GlcNAc(b1-4)GlcNAc
# Procedure, shortened: as §1
# [5] = target: Neu5Ac(a2-3)Gal(b1-4)GlcNAc(b1-3)Gal
# Procedure, shortened: as §1
# [6] = target: Neu5Ac(a2-3)Gal(b1-4)GlcNAc(b1-3)Gal(b1-3)GlcNAc
# Procedure, shortened: as §1
# [7] = target: Neu5Ac(a2-3)Gal(b1-4)GlcNAc(b1-3)Gal(b1-4)GlcNAc
# Procedure, shortened: as §1
# [8] = target: Neu5Ac(a2-3)Gal(b1-4)GlcNAc(b1-3)Gal(b1-4)GlcNAc(b1-2)Man(a1-3)[Neu5Ac(a2-3)Gal(b1-4)GlcNAc(b1-3)Gal(b1-4)GlcNAc(b1-2)Man(a1-6)]Man(b1-4)GlcNAc(b1-4)GlcNAc
# Procedure, shortened: as §1
# [9] = target: Neu5Ac(a2-3)Gal(b1-4)GlcNAc(b1-3)Gal(b1-4)GlcNAc(b1-3)Gal(b1-4)GlcNAc
# Procedure, shortened: as §1
# [10] = target: Neu5Ac(a2-3)Gal(b1-4)GlcNAc(b1-3)Gal(b1-4)GlcNAc(b1-3)Gal(b1-4)GlcNAc(b1-2)Man(a1-3)[Neu5Ac(a2-3)Gal(b1-4)GlcNAc(b1-3)Gal(b1-4)GlcNAc(b1-3)Gal(b1-4)GlcNAc(b1-2)Man(a1-6)]GalNAc
# Procedure, shortened: as §1
# [11] = target: Neu5Ac(a2-3)Gal(b1-4)GlcNAc(b1-3)Gal(b1-4)GlcNAc(b1-3)GalNAc
# Procedure, shortened: as §1
# [12] = target: Neu5Ac(a2-3)Gal(b1-4)GlcNAc(b1-3)Gal(b1-4)GlcNAc(b1-3)[Neu5Ac(a2-3)Gal(b1-4)GlcNAc(b1-3)Gal(b1-4)GlcNAc(b1-6)]GalNAc
# Procedure, shortened: as §1
# [13] = target: Neu5Ac(a2-3)Gal(b1-4)GlcNAc(b1-3)Gal(b1-4)GlcNAc(b1-6)[Gal(b1-3)]GalNAc
# Procedure, shortened: as §1
# [14] = target: Neu5Ac(a2-3)Gal(b1-4)GlcNAc(b1-3)Gal(b1-4)[Fuc(a1-3)]GlcNAc
# Procedure, shortened: as §1
# [15] = target: Neu5Ac(a2-3)Gal(b1-4)GlcNAc(b1-3)GalNAc
# Procedure, shortened: as §1
# [16] = target: Neu5Ac(a2-3)Gal(b1-4)GlcNAc(b1-3)[Neu5Ac(a2-3)Gal(b1-4)GlcNAc(b1-6)]GalNAc
# Procedure, shortened: as §1
# [17] = target: Neu5Ac(a2-3)Gal(b1-4)GlcNAc(b1-6)GalNAc
# Procedure, shortened: as §1
# [18] = target: Neu5Ac(a2-3)Gal(b1-4)GlcNAc(b1-6)[Gal(b1-3)]GalNAc
# Procedure, shortened: as §1
# [19] = target: Neu5Ac(a2-3)Gal(b1-4)GlcNAc(b1-6)[Neu5Ac(a2-3)Gal(b1-3)]GalNAc
# Procedure, shortened: as §1
# [20] = target: Neu5Ac(a2-3)Gal(b1-4)GlcNAc6S
# Procedure, shortened: as §1
# [21] = target: Neu5Ac(a2-3)Gal(b1-4)[Fuc(a1-3)]GlcNAc
# Procedure, shortened: as §1
# [22] = target: Neu5Ac(a2-3)Gal(b1-4)[Fuc(a1-3)]GlcNAc(b1-2)Man
# Procedure, shortened: as §1
# [23] = target: Neu5Ac(a2-3)Gal(b1-4)[Fuc(a1-3)]GlcNAc(b1-3)Gal
# Procedure, shortened: as §1
# [24] = target: Neu5Ac(a2-3)Gal(b1-4)[Fuc(a1-3)]GlcNAc(b1-3)Gal(b1-4)GlcNAc
# Procedure, shortened: as §1
# [25] = target: Neu5Ac(a2-3)Gal(b1-4)[Fuc(a1-3)]GlcNAc(b1-3)Gal(b1-4)[Fuc(a1-3)]GlcNAc(b1-3)Gal(b1-4)[Fuc(a1-3)]GlcNAc
# Procedure, shortened: as §1
# [26] = target: Neu5Ac(a2-3)Gal(b1-4)[Fuc(a1-3)]GlcNAc(b1-3)GalNAc
# Procedure, shortened: as §1
# [27] = target: Neu5Ac(a2-3)Gal(b1-4)[Fuc(a1-3)]GlcNAc(b1-6)[Gal(b1-3)]GalNAc
# Procedure, shortened: as §1
# [28] = target: Neu5Ac(a2-3)Gal(b1-4)[Fuc(a1-3)]GlcNAc(b1-6)[Neu5Ac(a2-3)Gal(b1-3)]GalNAc
# Procedure, shortened: as §1
# [29] = target: Neu5Ac(a2-3)Gal(b1-4)[Fuc(a1-3)]GlcNAc6S
# Procedure, shortened: as §1
# [30] = target: Neu5Ac(a2-3)Gal6S(b1-4)GlcNAc
# Procedure, shortened: as §1
# [31] = target: Neu5Ac(a2-3)Gal6S(b1-4)[Fuc(a1-3)]GlcNAc
# Procedure, shortened: as §1
# [32] = target: Neu5Ac(a2-3)GalNAc
# Procedure, shortened: as §1
# [33] = target: Neu5Ac(a2-3)GalNAc(b1-4)GlcNAc
# Procedure, shortened: as §1
# [34] = target: Neu5Ac(a2-3)[GalNAc(b1-4)]Gal(b1-4)Glc
# Procedure, shortened: as §1
# [35] = target: Neu5Ac(a2-3)[GalNAc(b1-4)]Gal(b1-4)GlcNAc
# Procedure, shortened: as §1
# [36] = target: Neu5Ac(a2-3)[GalNAc(b1-4)]Gal(b1-4)GlcNAc(b1-3)GalNAc
# Procedure, shortened: as §1
# [37] = target: Neu5Ac(a2-3)[Neu5Ac(a2-6)]GalNAc
# Procedure, shortened: as §1
binder,measurement,setting,value
"AT5G24760(45) (Arabidopsis thaliana), Q8LEB2 (protein) MSASSSSFEQPQVITCNAAVAWRAGEPLVMEEVEVSPPQPLEIRIKVVCTSLCRSDLSAWESQSLLPRIFGHEAAGIVESIGEGVTEFEKGDHVLAVFTGECGSCRHCISGKSNMCQVLGMERKGLMHSDQKTRFSIKGKPVYHYCAVSSFSEYTVVHSGCAVKVDPLAPLHKICLLSCGVAAGLGAAWNVADVQKGSSVVIFGLGTVGLSVAQGAKLRGAAQILGVDINPAKAEQAKTFGVTDFINSNDLSEPIPQVIKRMTGGGADFSFECVGDTGIATTALQSCSDGWGMTVTLGVPKAKPEVSAHYGLFLSGKSLKGTLFGGWKPKSDLPSLIDKYMNKEIMIDEFITHNLSFDEINKAFVLMREGKCLRCVLHMPK",glycan array binding signal (z-score),[1],-0.97
same,glycan array binding signal (z-score),[2],-0.784
same,glycan array binding signal (z-score),[3],-0.601
same,glycan array binding signal (z-score),[4],-1.12
same,glycan array binding signal (z-score),[5],-0.951
same,glycan array binding signal (z-score),[6],-0.66
same,glycan array binding signal (z-score),[7],-0.818
same,glycan array binding signal (z-score),[8],-0.337
same,glycan array binding signal (z-score),[9],-0.884
same,glycan array binding signal (z-score),[10],0.612
same,glycan array binding signal (z-score),[11],-1.13
same,glycan array binding signal (z-score),[12],-0.691
same,glycan array binding signal (z-score),[13],-0.304
same,glycan array binding signal (z-score),[14],-0.927
same,glycan array binding signal (z-score),[15],-0.675
same,glycan array binding signal (z-score),[16],-1.2
same,glycan array binding signal (z-score),[17],-0.781
same,glycan array binding signal (z-score),[18],-0.861
same,glycan array binding signal (z-score),[19],-0.686
same,glycan array binding signal (z-score),[20],-0.72
same,glycan array binding signal (z-score),[21],-0.565
same,glycan array binding signal (z-score),[22],-0.148
same,glycan array binding signal (z-score),[23],-0.085
same,glycan array binding signal (z-score),[24],0.773
same,glycan array binding signal (z-score),[25],-0.878
same,glycan array binding signal (z-score),[26],3.17
same,glycan array binding signal (z-score),[27],0.591
same,glycan array binding signal (z-score),[28],2.76
same,glycan array binding signal (z-score),[29],-0.909
same,glycan array binding signal (z-score),[30],0.378
same,glycan array binding signal (z-score),[31],-0.538
same,glycan array binding signal (z-score),[32],-0.101
same,glycan array binding signal (z-score),[33],1.09
same,glycan array binding signal (z-score),[34],-0.661
same,glycan array binding signal (z-score),[35],-0.717
same,glycan array binding signal (z-score),[36],0.231
same,glycan array binding signal (z-score),[37],-0.479

# 3 entries from above, bar-delimited.
binder | measurement | setting | value
AT5G24760(45) (Arabidopsis thaliana), Q8LEB2 (protein) MSASSSSFEQPQVITCNAAVAWRAGEPLVMEEVEVSPPQPLEIRIKVVCTSLCRSDLSAWESQSLLPRIFGHEAAGIVESIGEGVTEFEKGDHVLAVFTGECGSCRHCISGKSNMCQVLGMERKGLMHSDQKTRFSIKGKPVYHYCAVSSFSEYTVVHSGCAVKVDPLAPLHKICLLSCGVAAGLGAAWNVADVQKGSSVVIFGLGTVGLSVAQGAKLRGAAQILGVDINPAKAEQAKTFGVTDFINSNDLSEPIPQVIKRMTGGGADFSFECVGDTGIATTALQSCSDGWGMTVTLGVPKAKPEVSAHYGLFLSGKSLKGTLFGGWKPKSDLPSLIDKYMNKEIMIDEFITHNLSFDEINKAFVLMREGKCLRCVLHMPK | glycan array binding signal (z-score) | [11] | -1.13
same | glycan array binding signal (z-score) | [29] | -0.909
same | glycan array binding signal (z-score) | [31] | -0.538
